The values that follow are results of earlier work, collected in patent US12297220B2, “Phenethylamines and cathinones precursors” (Transcend Therapeutics, Inc., priority 2022, dated 2025).

For the data set the following is noted: reported by consumers; cited from earlier work.

For `CNC(C)C(=O)c1ccc2c(c1)OCO2` (centres unmarked) [Methylone, methylone], the duration was 2 to 3.5 h and the onset of action was 15 to 30 min.
